## Results from one PubChem assay

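Vaccinia-infected cells with a two-color viral stage reporter; Venus fluorescence read on a plate reader; the cell line is not named here; timing not stated here. The test concentration is not given here. Percent change in Venus reporter signal; lower (more negative) values mean stronger inhibition of that viral stage.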

Values are in %. How 0% and 100% were set is not given here. Common to all entries: measured here: Venus reporter, other viral stage. Part of the compounds only, not a random draw; the main read-out is not listed here.

| # | SMILES | activity change (Venus) (%) |
|---|---|---|
| 1 | `Cc1ccc(-c2ccc(C3[C@@H]4CN(S(=O)(=O)c5ccccc5)C[C@H]3N4)cc2)cc1` (some centres not stated) | -36.48 |
| 2 | `O=C(Nc1ccccc1)N1CC(=O)N2[C@H](C1)[C@@H](c1ccc(C#CC3CCCCC3)cc1)[C@@H]2CO` | -52.01 |
| 3 | `Cc1ccc(S(=O)(=O)Nc2ccc3c(c2)C(=O)N([C@@H](C)CO)C[C@H](C)[C@@H](CN(C)C(=O)Nc2ccc(F)cc2)OCCCC[C@@H](C)O3)cc1` | -30.97 |
| 4 | `COc1ccc2c3c([nH]c2c1)[C@H](CO)N(C(C)=O)CC31CCN(Cc2cc(-c3ccccc3)on2)CC1` | -44.13 |
| 5 | `O=C(C[C@@H]1CC[C@H]2[C@@H](COC[C@@H](O)CN2Cc2ccc(Oc3ccccc3)cc2)O1)N1CCc2ccccc2C1` | -71.89 |
| 6 | `C[C@@H]1CN([C@H](C)CO)C(=O)c2cc(C#CC3CCCCC3)cnc2O[C@@H]1CN(C)C(=O)Nc1ccccc1` | -40.01 |
| 7 | `C[C@@H]1CN([C@H](C)CO)C(=O)c2c(c3ccccc3n2C)-c2ccccc2CO[C@@H]1CN(C)S(=O)(=O)c1ccc(C#N)cc1` | -31.73 |
| 8 | `CN1c2ccc(-c3ccc(C#N)cc3)cc2[C@H]2[C@H](CCN2S(=O)(=O)c2cccc(F)c2)[C@@H]1CO` | -32.17 |
| 9 | `C[C@@H]1CN([C@H](C)CO)S(=O)(=O)c2ccc(C#Cc3ccccc3F)cc2O[C@H]1CN(C)C(=O)c1ccc2c(c1)OCO2` | -28.67 |
| 10 | `CC(C)C#Cc1ccc([C@@H]2[C@H]3CN(S(=O)(=O)Cc4ccccc4)CCCCN3[C@H]2CO)cc1` | -37.68 |
| 11 | `O=C(Nc1ccc2c(c1)OCO2)N1C[C@@H]2N[C@H](C1)C2c1ccc(C=Cc2ccccc2)cc1` (some centres not stated) | -32.22 |
| 12 | `C[C@H]1CN([C@@H](C)CO)C(=O)c2c(c3ccccc3n2C)-c2ccccc2CO[C@@H]1CN(C)Cc1ccc(C(F)(F)F)cc1` | -73.24 |
| 13 | `C[C@@H]1CN([C@H](C)CO)C(=O)c2cc(NC(=O)Nc3ccc(C(F)(F)F)cc3)ccc2O[C@@H](C)CCCCO[C@H]1CN(C)Cc1ccc2c(c1)OCO2` | -48.72 |
| 14 | `C[C@@H]1CN([C@H](C)CO)S(=O)(=O)c2ccc(C3=CCCCC3)cc2O[C@H]1CN(C)S(C)(=O)=O` | -34.26 |
| 15 | `O=C(Nc1cccc(F)c1)N1CCCCN2[C@H](CO)[C@H](c3ccc(C#Cc4ccccc4)cc3)[C@H]2C1` | -70.47 |
| 16 | `Cc1noc(C)c1NC(=O)Nc1ccc2c(c1)C(=O)N([C@H](C)CO)C[C@H](C)[C@H](CN(C)Cc1ccc(Cl)c(Cl)c1)OCCCC[C@H](C)O2` | -44.28 |
| 17 | `C[C@@H]1CN([C@@H](C)CO)C(=O)c2cc(NS(=O)(=O)c3cccs3)ccc2O[C@@H](C)CCCCO[C@@H]1CN(C)Cc1ccc(C(F)(F)F)cc1` | -52.72 |
| 18 | `O=C(Nc1ccccc1)N1CCCCN2[C@@H](CO)[C@H](c3ccc(C4=CCCCC4)cc3)[C@@H]2C1` | -58.8 |
| 19 | `C[C@@H]1CN([C@H](C)CO)C(=O)c2cc(NC(=O)Nc3ccc4c(c3)OCO4)ccc2O[C@@H]1CN(C)Cc1ccc(C(F)(F)F)cc1` | -42.11 |
| 20 | `OC[C@H]1[C@@H](c2ccc(C#Cc3ccccc3)cc2)[C@H]2CN(Cc3cncnc3)CCCCN21` | -47.44 |
| 21 | `COc1cccc(C#Cc2ccc([C@@H]3[C@H](C#N)N(C(=O)c4ccccn4)[C@H]3CO)cc2)c1` | -27.64 |
| 22 | `Cc1ccccc1-c1ccc([C@H]2[C@H](CO)N3CCCCN(C(=O)Nc4ccc(F)cc4)C[C@@H]23)cc1` | -58.31 |
| 23 | `C[C@@H]1CCCCO[C@H](CN(C)Cc2ccc(C(F)(F)F)cc2)[C@@H](C)CN([C@@H](C)CO)C(=O)c2cc(NS(=O)(=O)c3ccc(Cl)cc3)ccc2O1` | -69.23 |
| 24 | `COc1cccc(S(=O)(=O)N(C)C[C@H]2OCc3ccccc3-c3c(n(C)c4ccccc34)C(=O)N([C@H](C)CO)C[C@@H]2C)c1` | -40.62 |
| 25 | `O=C(C[C@H]1CC[C@H](NC(=O)c2ccc3c(c2)OCO3)[C@H](CO)O1)NCc1ccc(Oc2ccccc2)cc1` | -27.85 |
| 26 | `COc1cccc(CN2CC3(CCN(C)CC3)c3c(n(C)c4cc(OC)ccc34)[C@H]2CO)c1` | -33.09 |
| 27 | `C[C@H]1CN([C@@H](C)CO)S(=O)(=O)c2ccc(-c3ccccc3)cc2O[C@@H]1CN(C)C(=O)Cc1ccccc1` | -43.08 |
| 28 | `C[C@H](NC(=O)C[C@H]1CC[C@H]2[C@@H](COC[C@H](O)CN2C(=O)Nc2cc(Cl)cc(Cl)c2)O1)c1ccccc1` | -51.56 |
| 29 | `C[C@@H]1CCCCO[C@@H](CN(C)C(=O)C2CCCCC2)[C@H](C)CN([C@H](C)CO)C(=O)c2cc(NS(=O)(=O)c3cccs3)ccc2O1` | -31.43 |
| 30 | `C[C@@H]1CN([C@@H](C)CO)C(=O)c2cccc(NC(=O)c3cnccn3)c2O[C@@H]1CN(C)Cc1ccc(-c2ccccc2)cc1` | -30.63 |
| 31 | `C[C@@H]1CCCCO[C@@H](CN(C)Cc2ccc(Cl)c(Cl)c2)[C@@H](C)CN([C@@H](C)CO)C(=O)c2cc(NC(=O)C3CCCCC3)ccc2O1` | -30.63 |
| 32 | `C[C@@H]1CN([C@@H](C)CO)C(=O)c2cc(C#CC3CCCCC3)cnc2O[C@H]1CN(C)C(=O)NC1CCCC1` | -39.59 |
| 33 | `Cc1ccc(S(=O)(=O)Nc2ccc3c(c2)C(=O)N([C@H](C)CO)C[C@H](C)[C@@H](CN(C)Cc2ccc4c(c2)OCO4)OCCCC[C@H](C)O3)cc1` | -49.84 |
| 34 | `C[C@H](CO)N1C[C@H](C)[C@H](CN(C)CC2CCOCC2)Oc2ncc(C#Cc3ccc(F)cc3)cc2C1=O` | -52.34 |
| 35 | `C[C@H]1CCCCO[C@H](CN(C)Cc2ccc3c(c2)OCO3)[C@@H](C)CN([C@@H](C)CO)C(=O)c2cc(NC(=O)Nc3ccc(C(F)(F)F)cc3)ccc2O1` | -45.92 |
| 36 | `N#C[C@H]1[C@H](c2ccc(C3=CCCCC3)cc2)[C@H](CO)N1C(=O)NC1CCCC1` | -45.03 |
| 37 | `COc1ccccc1CN(C)C[C@@H]1OCc2ccccc2-c2c(n(C)c3ccccc23)C(=O)N([C@@H](C)CO)C[C@H]1C` | -60.42 |
| 38 | `CN(C)CC(=O)Nc1ccc2c(c1)[C@H]1C[C@@H](CC(=O)NCc3ccc(-c4ccccc4)cc3)O[C@H](CO)[C@H]1O2` | -21.54 |
| 39 | `O=C(c1cnccn1)N1CC(=O)N2[C@H](C1)[C@@H](c1ccc(C#CC3CCCCC3)cc1)[C@@H]2CO` | -50.38 |
| 40 | `C[C@@H]1CN([C@H](C)CO)C(=O)c2cc(NC(=O)Nc3ccc4c(c3)OCO4)ccc2O[C@@H](C)CCCCO[C@@H]1CN(C)Cc1ccccc1` | -49.51 |
| 41 | `O=C(C[C@@H]1CC[C@@H]2[C@H](COC[C@@H](O)CN2S(=O)(=O)c2ccc(F)cc2)O1)NCc1ccc(Cl)c(Cl)c1` | -23.02 |
| 42 | `O=C(C[C@H]1CC[C@@H]2[C@H](COC[C@H](O)CN2S(=O)(=O)c2cccc(F)c2)O1)Nc1ccc(-c2ccccc2)cc1` | -70.35 |
| 43 | `COCc1cn([C@@H]2C[C@@H]3O[C@@H](CO)CC[C@@H]3O[C@@H]2CCc2ccc(-c3ccc(OC)cc3)cc2)nn1` | -40.71 |
| 44 | `Cc1ccccc1S(=O)(=O)N(C)C[C@@H]1OCc2ccccc2-c2ccccc2C(=O)N([C@@H](C)CO)C[C@H]1C` | -31.64 |
| 45 | `O=C(c1cccc(F)c1)N1CC(=O)N2[C@H](CO)[C@@H](c3ccc(-c4ccccc4F)cc3)[C@H]2C1` | -53.25 |
| 46 | `CCCNC(=O)N1CC(=O)N2[C@H](CO)[C@@H](c3ccc(-c4ccc(C)cc4)cc3)[C@H]2C1` | -33.23 |
| 47 | `CN(C)C(=O)c1cccc(-c2ccc3c(c2)[C@@H]2[C@@H](CCN2C(=O)C2CCCC2)[C@@H](CO)N3)c1` | -15.84 |
| 48 | `Fc1ccc(-c2ccc(C3[C@@H]4CN(Cc5ccccc5)C[C@H]3N4)cc2)cc1` (some centres not stated) | -78.74 |
| 49 | `C[C@H](CO)N1C[C@H](C)[C@H](CN(C)C(=O)Nc2ccc(C(F)(F)F)cc2)Oc2c(NC(=O)C3CCCCC3)cccc2C1=O` | -68.97 |
| 50 | `O=C(NCC[C@@H]1CC[C@H](NS(=O)(=O)c2ccc(Cl)cc2)[C@@H](CO)O1)c1ccccc1F` | -32.35 |
| 51 | `C/C=C/c1ccc(C2[C@@H]3CN(C(=O)Nc4ccc(F)cc4)C[C@H]2N3)cc1` (some centres not stated) | -46.02 |
| 52 | `COc1ccccc1CN1C[C@@H]2N[C@H](C1)C2c1ccc(/C=C/c2ccccc2)cc1` (some centres not stated) | -71.76 |
| 53 | `C[C@H]1CN([C@@H](C)CO)C(=O)c2ccccc2-c2ccccc2CO[C@@H]1CN(C)Cc1ccc(Cl)c(Cl)c1` | -68.95 |
| 54 | `COCC(=O)N(C)C[C@@H]1Oc2cc(C#CCC3CCCC3)ccc2S(=O)(=O)N([C@@H](C)CO)C[C@H]1C` | -44.19 |

For reference, 5 entries once more:

* Cc1noc(C)c1NC(=O)Nc1ccc2c(c1)C(=O)N([C@H](C)CO)C[C@H](C)[C@H](CN(C)Cc1ccc(Cl)c(Cl)c1)OCCCC[C@H](C)O2 : activity change (Venus) -44.28%
* COc1cccc(CN2CC3(CCN(C)CC3)c3c(n(C)c4cc(OC)ccc34)[C@H]2CO)c1 : activity change (Venus) -33.09%
* O=C(Nc1ccccc1)N1CC(=O)N2[C@H](C1)[C@@H](c1ccc(C#CC3CCCCC3)cc1)[C@@H]2CO : activity change (Venus) -52.01%
* CN(C)CC(=O)Nc1ccc2c(c1)[C@H]1C[C@@H](CC(=O)NCc3ccc(-c4ccccc4)cc3)O[C@H](CO)[C@H]1O2 : activity change (Venus) -21.54%
* C[C@H]1CN([C@@H](C)CO)S(=O)(=O)c2ccc(-c3ccccc3)cc2O[C@@H]1CN(C)C(=O)Cc1ccccc1 : activity change (Venus) -43.08%

From PubChem BioAssay record AID1053133 (Broad Institute, 2014).